Measured values from the supplement of paper PMC12823440, “Inhibitors supercharge kinase turnover through native proteolytic circuits” (Nature, 2025).
Some of the results follow. The calls rarely recur for the same compound in another form.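 In K562 cells expressing nanoluciferase-fused kinases, luminescence was recorded at 4 h intervals between 2 and 18 h, normalized as percent of control with DMSO at 100% and a positive control at 0%. A significant (2 sigma) signal drop marks a time point as decreased. The authors' rule for a hit is not shown and takes in more than the number of time points.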

Sequences of proteins named here, by UniProt entry; tags and fusion partners are left off. A change or cut given only in a name is not applied to a line headed by its entry.
UniProt P21860, whole entry: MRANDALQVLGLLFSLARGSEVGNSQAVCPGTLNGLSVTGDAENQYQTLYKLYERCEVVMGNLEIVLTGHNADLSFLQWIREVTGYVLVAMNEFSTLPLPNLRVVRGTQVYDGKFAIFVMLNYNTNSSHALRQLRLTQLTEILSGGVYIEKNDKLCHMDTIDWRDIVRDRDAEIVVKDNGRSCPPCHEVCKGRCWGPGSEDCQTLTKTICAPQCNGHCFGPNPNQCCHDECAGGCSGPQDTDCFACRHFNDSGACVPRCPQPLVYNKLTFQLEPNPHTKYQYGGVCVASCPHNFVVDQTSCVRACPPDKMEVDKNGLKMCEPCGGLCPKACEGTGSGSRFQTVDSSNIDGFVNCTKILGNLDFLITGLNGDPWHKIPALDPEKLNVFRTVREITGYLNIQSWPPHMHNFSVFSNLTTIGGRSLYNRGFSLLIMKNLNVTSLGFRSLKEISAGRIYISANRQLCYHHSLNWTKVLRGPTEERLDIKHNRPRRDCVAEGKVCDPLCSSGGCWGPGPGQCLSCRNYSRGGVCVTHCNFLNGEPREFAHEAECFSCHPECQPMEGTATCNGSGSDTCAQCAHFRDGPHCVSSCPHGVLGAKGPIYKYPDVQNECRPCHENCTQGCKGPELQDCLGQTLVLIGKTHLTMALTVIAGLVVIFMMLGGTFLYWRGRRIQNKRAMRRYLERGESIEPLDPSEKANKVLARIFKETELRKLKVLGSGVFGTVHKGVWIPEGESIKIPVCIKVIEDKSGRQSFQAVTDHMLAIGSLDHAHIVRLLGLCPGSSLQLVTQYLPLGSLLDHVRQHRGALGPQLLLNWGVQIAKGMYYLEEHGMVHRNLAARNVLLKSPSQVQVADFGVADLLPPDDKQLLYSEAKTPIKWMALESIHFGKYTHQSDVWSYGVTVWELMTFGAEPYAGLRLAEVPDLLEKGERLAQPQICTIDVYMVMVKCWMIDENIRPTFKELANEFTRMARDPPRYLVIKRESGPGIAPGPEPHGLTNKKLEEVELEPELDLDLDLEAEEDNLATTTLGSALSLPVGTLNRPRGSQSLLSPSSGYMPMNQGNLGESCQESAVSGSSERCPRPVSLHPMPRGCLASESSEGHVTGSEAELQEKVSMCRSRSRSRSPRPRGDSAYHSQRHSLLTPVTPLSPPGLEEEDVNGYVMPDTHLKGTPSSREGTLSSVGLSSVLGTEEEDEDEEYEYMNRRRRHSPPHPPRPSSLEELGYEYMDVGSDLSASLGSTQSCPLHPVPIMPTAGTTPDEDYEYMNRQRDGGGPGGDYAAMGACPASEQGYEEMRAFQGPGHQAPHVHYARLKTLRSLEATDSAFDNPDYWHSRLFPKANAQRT
UniProt Q15303, whole entry R711C: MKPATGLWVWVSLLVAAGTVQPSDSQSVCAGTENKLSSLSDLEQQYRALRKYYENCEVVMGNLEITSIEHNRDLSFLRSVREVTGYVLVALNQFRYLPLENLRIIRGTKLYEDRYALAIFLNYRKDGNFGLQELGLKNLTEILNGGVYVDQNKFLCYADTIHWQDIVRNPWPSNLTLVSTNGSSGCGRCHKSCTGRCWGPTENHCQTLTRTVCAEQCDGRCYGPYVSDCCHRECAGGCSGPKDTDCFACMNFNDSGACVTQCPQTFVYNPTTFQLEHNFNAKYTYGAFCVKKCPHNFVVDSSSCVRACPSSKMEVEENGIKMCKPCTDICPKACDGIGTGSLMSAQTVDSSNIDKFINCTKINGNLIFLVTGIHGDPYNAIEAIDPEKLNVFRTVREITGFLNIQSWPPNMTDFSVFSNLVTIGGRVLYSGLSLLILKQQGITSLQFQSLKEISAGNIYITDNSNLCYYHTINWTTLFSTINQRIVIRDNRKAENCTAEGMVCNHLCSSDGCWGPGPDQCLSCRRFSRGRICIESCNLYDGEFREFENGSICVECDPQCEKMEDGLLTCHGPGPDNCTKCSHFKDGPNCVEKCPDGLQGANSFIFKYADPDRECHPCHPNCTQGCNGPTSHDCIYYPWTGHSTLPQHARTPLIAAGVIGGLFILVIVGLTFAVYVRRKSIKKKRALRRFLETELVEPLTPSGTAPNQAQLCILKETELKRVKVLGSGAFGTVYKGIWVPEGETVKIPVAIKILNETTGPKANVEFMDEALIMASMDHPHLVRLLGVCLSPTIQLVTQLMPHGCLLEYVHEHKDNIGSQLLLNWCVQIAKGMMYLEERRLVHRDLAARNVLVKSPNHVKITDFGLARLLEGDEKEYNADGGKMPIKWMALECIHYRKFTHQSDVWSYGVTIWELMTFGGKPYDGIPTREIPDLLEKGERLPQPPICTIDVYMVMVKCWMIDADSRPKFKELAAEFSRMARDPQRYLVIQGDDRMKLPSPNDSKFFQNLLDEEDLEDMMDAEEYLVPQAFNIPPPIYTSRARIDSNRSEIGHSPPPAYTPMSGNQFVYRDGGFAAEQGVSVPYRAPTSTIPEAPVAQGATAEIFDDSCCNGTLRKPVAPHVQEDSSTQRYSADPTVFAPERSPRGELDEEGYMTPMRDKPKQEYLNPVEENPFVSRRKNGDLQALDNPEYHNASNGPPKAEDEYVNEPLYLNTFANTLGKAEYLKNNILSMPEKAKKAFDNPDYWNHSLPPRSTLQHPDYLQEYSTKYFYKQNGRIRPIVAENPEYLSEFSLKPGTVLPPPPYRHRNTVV
UniProt O75460: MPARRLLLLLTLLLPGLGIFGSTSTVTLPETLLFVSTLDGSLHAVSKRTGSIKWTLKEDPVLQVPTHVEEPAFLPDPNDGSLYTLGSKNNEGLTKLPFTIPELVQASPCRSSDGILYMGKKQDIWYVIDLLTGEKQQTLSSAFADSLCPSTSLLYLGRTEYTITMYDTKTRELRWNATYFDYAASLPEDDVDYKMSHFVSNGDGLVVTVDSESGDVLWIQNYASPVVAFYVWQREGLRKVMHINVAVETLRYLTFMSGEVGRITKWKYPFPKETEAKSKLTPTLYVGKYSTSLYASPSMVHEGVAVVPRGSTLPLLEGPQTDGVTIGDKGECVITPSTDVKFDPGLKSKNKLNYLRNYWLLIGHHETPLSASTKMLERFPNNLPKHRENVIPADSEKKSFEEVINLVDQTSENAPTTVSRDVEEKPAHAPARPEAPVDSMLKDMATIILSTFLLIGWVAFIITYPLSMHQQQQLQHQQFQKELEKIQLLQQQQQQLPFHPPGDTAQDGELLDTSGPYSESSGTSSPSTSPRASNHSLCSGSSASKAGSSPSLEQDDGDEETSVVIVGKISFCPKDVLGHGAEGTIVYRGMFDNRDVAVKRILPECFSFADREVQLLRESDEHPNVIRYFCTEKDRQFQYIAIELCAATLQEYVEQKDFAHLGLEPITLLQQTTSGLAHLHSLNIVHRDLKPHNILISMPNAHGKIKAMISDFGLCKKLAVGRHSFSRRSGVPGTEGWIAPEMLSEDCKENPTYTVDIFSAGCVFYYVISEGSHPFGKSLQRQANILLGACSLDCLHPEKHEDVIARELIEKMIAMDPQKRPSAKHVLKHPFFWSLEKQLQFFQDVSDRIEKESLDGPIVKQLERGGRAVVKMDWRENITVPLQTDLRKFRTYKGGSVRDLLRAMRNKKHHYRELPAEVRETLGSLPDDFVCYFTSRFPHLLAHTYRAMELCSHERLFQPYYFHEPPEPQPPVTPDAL
UniProt P11362, whole entry, looked up: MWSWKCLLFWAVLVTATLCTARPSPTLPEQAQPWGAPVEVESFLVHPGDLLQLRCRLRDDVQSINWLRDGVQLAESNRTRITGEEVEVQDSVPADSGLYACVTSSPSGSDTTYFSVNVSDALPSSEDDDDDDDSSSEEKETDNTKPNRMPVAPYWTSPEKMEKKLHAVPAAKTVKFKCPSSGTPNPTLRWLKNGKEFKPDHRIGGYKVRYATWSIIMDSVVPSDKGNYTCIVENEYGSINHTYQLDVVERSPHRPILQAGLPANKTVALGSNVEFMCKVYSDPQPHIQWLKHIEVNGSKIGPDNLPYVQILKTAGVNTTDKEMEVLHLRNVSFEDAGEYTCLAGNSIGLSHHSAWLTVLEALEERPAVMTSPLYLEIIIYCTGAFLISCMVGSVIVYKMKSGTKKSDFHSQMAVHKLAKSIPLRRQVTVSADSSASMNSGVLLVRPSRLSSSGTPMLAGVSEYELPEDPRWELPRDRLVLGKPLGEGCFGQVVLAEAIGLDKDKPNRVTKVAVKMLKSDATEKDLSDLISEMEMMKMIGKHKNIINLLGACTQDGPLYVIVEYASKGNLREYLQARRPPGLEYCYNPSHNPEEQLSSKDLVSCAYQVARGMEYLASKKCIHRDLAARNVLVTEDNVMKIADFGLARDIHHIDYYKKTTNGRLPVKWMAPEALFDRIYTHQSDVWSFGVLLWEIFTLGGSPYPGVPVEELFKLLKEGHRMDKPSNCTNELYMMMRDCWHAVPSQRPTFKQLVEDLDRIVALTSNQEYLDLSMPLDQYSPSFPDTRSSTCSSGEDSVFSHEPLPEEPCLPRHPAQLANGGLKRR
UniProt P36888, whole entry: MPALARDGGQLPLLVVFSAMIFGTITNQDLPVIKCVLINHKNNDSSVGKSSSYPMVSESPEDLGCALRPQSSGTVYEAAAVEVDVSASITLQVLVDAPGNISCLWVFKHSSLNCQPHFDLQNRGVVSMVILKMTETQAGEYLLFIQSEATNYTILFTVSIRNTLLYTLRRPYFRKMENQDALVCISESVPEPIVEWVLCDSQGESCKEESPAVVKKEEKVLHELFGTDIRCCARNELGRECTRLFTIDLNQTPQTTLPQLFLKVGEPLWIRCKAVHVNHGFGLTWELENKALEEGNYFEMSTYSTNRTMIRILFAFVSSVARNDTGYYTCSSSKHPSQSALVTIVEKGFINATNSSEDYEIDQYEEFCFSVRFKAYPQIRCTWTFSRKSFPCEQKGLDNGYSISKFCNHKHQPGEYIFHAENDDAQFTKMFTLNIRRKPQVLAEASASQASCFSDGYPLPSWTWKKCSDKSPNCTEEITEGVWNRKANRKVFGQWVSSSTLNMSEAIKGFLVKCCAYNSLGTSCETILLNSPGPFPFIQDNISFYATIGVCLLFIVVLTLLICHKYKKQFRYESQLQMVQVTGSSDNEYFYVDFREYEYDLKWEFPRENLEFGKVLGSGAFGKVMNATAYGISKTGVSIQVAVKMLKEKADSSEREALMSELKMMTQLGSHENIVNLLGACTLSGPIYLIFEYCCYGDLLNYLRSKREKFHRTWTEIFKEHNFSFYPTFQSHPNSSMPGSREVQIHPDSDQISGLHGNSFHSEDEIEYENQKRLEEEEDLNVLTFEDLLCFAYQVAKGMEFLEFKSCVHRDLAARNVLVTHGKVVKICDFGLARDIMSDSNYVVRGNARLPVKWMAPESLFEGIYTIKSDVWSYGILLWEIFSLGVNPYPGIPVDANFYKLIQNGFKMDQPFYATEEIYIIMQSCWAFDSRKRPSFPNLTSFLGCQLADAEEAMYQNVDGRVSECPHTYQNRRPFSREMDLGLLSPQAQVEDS
UniProt P06241, whole entry, looked up: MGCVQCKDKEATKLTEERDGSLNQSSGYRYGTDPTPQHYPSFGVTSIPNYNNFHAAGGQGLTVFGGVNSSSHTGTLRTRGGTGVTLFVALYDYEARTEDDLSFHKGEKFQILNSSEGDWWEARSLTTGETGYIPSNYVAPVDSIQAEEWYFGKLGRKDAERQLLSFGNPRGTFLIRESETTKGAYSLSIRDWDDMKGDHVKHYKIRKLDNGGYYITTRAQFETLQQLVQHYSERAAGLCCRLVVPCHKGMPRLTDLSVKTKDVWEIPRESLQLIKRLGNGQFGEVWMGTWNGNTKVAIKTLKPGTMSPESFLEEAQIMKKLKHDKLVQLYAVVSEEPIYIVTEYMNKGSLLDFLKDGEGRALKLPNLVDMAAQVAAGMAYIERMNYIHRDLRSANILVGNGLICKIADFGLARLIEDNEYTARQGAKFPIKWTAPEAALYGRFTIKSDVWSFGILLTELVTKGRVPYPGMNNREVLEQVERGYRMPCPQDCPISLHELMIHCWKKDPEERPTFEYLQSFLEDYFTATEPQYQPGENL
UniProt P49840: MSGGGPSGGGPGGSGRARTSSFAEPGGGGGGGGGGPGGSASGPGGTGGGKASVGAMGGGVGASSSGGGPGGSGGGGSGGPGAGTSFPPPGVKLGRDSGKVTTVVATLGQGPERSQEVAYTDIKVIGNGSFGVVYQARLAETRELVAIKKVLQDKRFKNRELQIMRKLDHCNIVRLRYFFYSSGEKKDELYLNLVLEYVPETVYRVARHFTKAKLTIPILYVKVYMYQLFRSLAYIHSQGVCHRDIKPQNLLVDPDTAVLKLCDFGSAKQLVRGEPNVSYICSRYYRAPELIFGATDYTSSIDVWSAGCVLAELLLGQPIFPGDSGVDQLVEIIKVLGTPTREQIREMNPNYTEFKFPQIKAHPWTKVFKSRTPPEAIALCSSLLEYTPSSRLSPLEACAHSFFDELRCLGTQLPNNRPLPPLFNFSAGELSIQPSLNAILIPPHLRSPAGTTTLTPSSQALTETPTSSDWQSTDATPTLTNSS

Legend:
Assay in all cases: kinase-Nluc reporter destabilization hit call (1 = scored as downregulated) (binary); higher = compound decreases kinase abundance
Details in all cases: K562; 2-18 h
EGFR = EGFR (UniProt P00533)
EGFR_G719S = EGFR_G719S (UniProt P00533)
EGFR_G719S_T790M = EGFR_G719S_T790M (UniProt P00533)
EGFR_L718V = EGFR_L718V (UniProt P00533)
EGFR_L858R = EGFR_L858R (UniProt P00533)
EGFR_L861Q = EGFR_L861Q (UniProt P00533)
EGFR_T790M = EGFR_T790M (UniProt P00533)
EPHA2 = EPHA2 (UniProt P29317)
ERBB3 = ERBB3 (UniProt P21860)
[1] = biological target: ERBB4_R711C (clone: ERBB4_mut) (UniProt Q15303)
ERN1 = ERN1 (UniProt O75460)
FGFR1 = FGFR1 (UniProt P11362)
FGFR2 = FGFR2 (UniProt P21802)
FGFR3 = FGFR3 (UniProt P22607)
FGR = FGR (UniProt P09769)
FLT3 = FLT3 (UniProt P36888)
FYN = FYN (UniProt P06241)
GSK3A = GSK3A (UniProt P49840)
HER2 = HER2 (UniProt P04626)
INSRR = INSRR (UniProt P14616)

Measured: kinase-Nluc reporter destabilization hit call

O=C(N=c1sccn1Cc1ccccc1)c1c[nH]c2ncccc12 (10 µM)
inactive: EGFR 0 | EGFR_G719S 0 | EGFR_G719S_T790M 0 | EGFR_L718V 0 | EGFR_L858R 0 | EGFR_L861Q 0 | EGFR_T790M 0 | EPHA2 = 0 | ERBB3 = 0 | [1] 0 | ERN1 = 0 | FGFR1 = 0 | FGFR2 = 0 | FGFR3 = 0 | FGR 0 | FLT3 = 0 | FYN 0 | GSK3A 0 | HER2 = 0 | INSRR 0

O=c1cc(-c2ccc(O)cc2)oc2cc(O)c([C@@H]3O[C@H](CO)[C@@H](O)[C@H](O)[C@H]3O)c(O)c12 [Isovitexin] (10 µM)
inactive: EGFR 0 | EGFR_G719S 0 | EGFR_G719S_T790M 0 | EGFR_L718V 0 | EGFR_L858R 0 | EGFR_L861Q 0 | EGFR_T790M 0 | EPHA2 = 0 | ERBB3 = 0 | [1] 0 | ERN1 = 0 | FGFR1 = 0 | FGFR2 = 0 | FGFR3 = 0 | FGR 0 | FLT3 = 0 | FYN 0 | GSK3A 0 | HER2 = 0 | INSRR 0

COc1ccc(S(=O)(=O)N(CCO)c2ccccc2CN(C)CC=Cc2ccc(Cl)cc2)cc1 (2.5 µM)
inactive: EGFR 0 | EGFR_G719S 0 | EGFR_G719S_T790M 0 | EGFR_L718V 0 | EGFR_L858R 0 | EGFR_L861Q 0 | EGFR_T790M 0 | EPHA2 = 0 | ERBB3 = 0 | [1] 0 | ERN1 = 0 | FGFR1 = 0 | FGFR2 = 0 | FGFR3 = 0 | FGR 0 | FLT3 = 0 | FYN 0 | GSK3A 0 | HER2 = 0 | INSRR 0

CN(C)CCCNc1ccn2ncc(-c3ccc4c(c3)OCO4)c2n1 (10 µM)
inactive: EGFR 0 | EGFR_G719S 0 | EGFR_G719S_T790M 0 | EGFR_L718V 0 | EGFR_L858R 0 | EGFR_L861Q 0 | EGFR_T790M 0 | EPHA2 = 0 | ERBB3 = 0 | [1] 0 | ERN1 = 0 | FGFR1 = 0 | FGFR2 = 0 | FGFR3 = 0 | FGR 0 | FLT3 = 0 | FYN 0 | GSK3A 0 | HER2 = 0 | INSRR 0

C[C@@H]1CN(CC(=O)Nc2ccc3c(c2)Cc2cccc(-c4cc(=O)cc(N5CCOCC5)o4)c2S3)C[C@H](C)O1 (2.5 µM)
inactive: EGFR 0 | EGFR_G719S 0 | EGFR_G719S_T790M 0 | EGFR_L718V 0 | EGFR_L858R 0 | EGFR_L861Q 0 | EGFR_T790M 0 | EPHA2 = 0 | ERBB3 = 0 | [1] 0 | ERN1 = 0 | FGFR1 = 0 | FGFR2 = 0 | FGFR3 = 0 | FGR 0 | FLT3 = 0 | FYN 0 | GSK3A 0 | HER2 = 0 | INSRR 0

C=C[C@H]1[C@H](O[C@@H]2O[C@H](CO)[C@@H](O)[C@H](O)[C@H]2O)OC=C(C(=O)OC)[C@H]1CCOC(=O)c1cc(O)c(O)c(O)c1 [Cornuside] (10 µM)
inactive: EGFR 0 | EGFR_G719S 0 | EGFR_G719S_T790M 0 | EGFR_L718V 0 | EGFR_L858R 0 | EGFR_L861Q 0 | EGFR_T790M 0 | EPHA2 = 0 | ERBB3 = 0 | [1] 0 | ERN1 = 0 | FGFR1 = 0 | FGFR2 = 0 | FGFR3 = 0 | FGR 0 | FLT3 = 0 | FYN 0 | GSK3A 0 | HER2 = 0 | INSRR 0

O=C(Nc1ncc(SCCN2CCCC2)s1)[C@]1(c2ccc(S(=O)(=O)C3CC3)cc2)C[C@H]1C1CCCCC1 [Globalagliatin] (2.5 µM)
inactive: EGFR 0 | EGFR_G719S 0 | EGFR_G719S_T790M 0 | EGFR_L718V 0 | EGFR_L858R 0 | EGFR_L861Q 0 | EGFR_T790M 0 | EPHA2 = 0 | ERBB3 = 0 | [1] 0 | ERN1 = 0 | FGFR1 = 0 | FGFR2 = 0 | FGFR3 = 0 | FGR 0 | FLT3 = 0 | FYN 0 | GSK3A 0 | HER2 = 0 | INSRR 0

CC(C)(C)S(=O)(=O)c1ccc2nccc(Nc3n[nH]c4ccc(F)cc34)c2c1 (10 µM)
inactive: EGFR 0 | EGFR_G719S 0 | EGFR_G719S_T790M 0 | EGFR_L718V 0 | EGFR_L858R 0 | EGFR_L861Q 0 | EGFR_T790M 0 | EPHA2 = 0 | ERBB3 = 0 | [1] 0 | ERN1 = 0 | FGFR1 = 0 | FGFR2 = 0 | FGFR3 = 0 | FGR 0 | FLT3 = 0 | FYN 0 | GSK3A 0 | HER2 = 0 | INSRR 0

C=CC(=O)Nc1cccc(Nc2nc(Nc3ccc(Oc4ccnc(C(=O)NC)c4)cc3)ncc2F)c1 (2.5 µM)
inactive: EGFR 0 | EGFR_G719S 0 | EGFR_G719S_T790M 0 | EGFR_L718V 0 | EGFR_L858R 0 | EGFR_L861Q 0 | EGFR_T790M 0 | EPHA2 = 0 | ERBB3 = 0 | [1] 0 | ERN1 = 0 | FGFR1 = 0 | FGFR2 = 0 | FGFR3 = 0 | FGR 0 | FLT3 = 0 | FYN 0 | GSK3A 0 | HER2 = 0 | INSRR 0

CC(C)n1nc(C#Cc2ccccc2)c2c(N)ncnc21 (10 µM)
inactive: EGFR 0 | EGFR_G719S 0 | EGFR_G719S_T790M 0 | EGFR_L718V 0 | EGFR_L858R 0 | EGFR_L861Q 0 | EGFR_T790M 0 | EPHA2 = 0 | ERBB3 = 0 | [1] 0 | ERN1 = 0 | FGFR1 = 0 | FGFR2 = 0 | FGFR3 = 0 | FGR 0 | FLT3 = 0 | GSK3A 0 | HER2 = 0 | INSRR 0
active: FYN 1

C[C@@]12CCc3occc3[C@H]1CC[C@@]13C[C@@H](CC[C@H]12)[C@@](O)(CO)C3 [Cafestol] (10 µM)
inactive: EGFR 0 | EGFR_G719S 0 | EGFR_G719S_T790M 0 | EGFR_L718V 0 | EGFR_L858R 0 | EGFR_L861Q 0 | EGFR_T790M 0 | EPHA2 = 0 | ERBB3 = 0 | [1] 0 | ERN1 = 0 | FGFR1 = 0 | FGFR2 = 0 | FGFR3 = 0 | FGR 0 | FLT3 = 0 | FYN 0 | GSK3A 0 | HER2 = 0 | INSRR 0

C[C@H](Nc1ccc2c(c1)OCCn1cc(N3C(=O)OC[C@H]3C(F)F)nc1-2)C(N)=O (10 µM)
inactive: EGFR 0 | EGFR_G719S 0 | EGFR_G719S_T790M 0 | EGFR_L718V 0 | EGFR_L858R 0 | EGFR_L861Q 0 | EGFR_T790M 0 | EPHA2 = 0 | ERBB3 = 0 | [1] 0 | ERN1 = 0 | FGFR1 = 0 | FGFR2 = 0 | FGFR3 = 0 | FGR 0 | FLT3 = 0 | FYN 0 | GSK3A 0 | HER2 = 0 | INSRR 0

Three compounds from above, ordered by molar mass, largest number first:
CC(C)(C)S(=O)(=O)c1ccc2nccc(Nc3n[nH]c4ccc(F)cc34)c2c1 (10 µM)
inactive: EGFR 0 | EGFR_G719S 0 | EGFR_G719S_T790M 0 | EGFR_L718V 0 | EGFR_L858R 0 | EGFR_L861Q 0 | EGFR_T790M 0 | EPHA2 = 0 | ERBB3 = 0 | [1] 0 | ERN1 = 0 | FGFR1 = 0 | FGFR2 = 0 | FGFR3 = 0 | FGR 0 | FLT3 = 0 | FYN 0 | GSK3A 0 | HER2 = 0 | INSRR 0

C[C@@]12CCc3occc3[C@H]1CC[C@@]13C[C@@H](CC[C@H]12)[C@@](O)(CO)C3 [Cafestol] (10 µM)
inactive: EGFR 0 | EGFR_G719S 0 | EGFR_G719S_T790M 0 | EGFR_L718V 0 | EGFR_L858R 0 | EGFR_L861Q 0 | EGFR_T790M 0 | EPHA2 = 0 | ERBB3 = 0 | [1] 0 | ERN1 = 0 | FGFR1 = 0 | FGFR2 = 0 | FGFR3 = 0 | FGR 0 | FLT3 = 0 | FYN 0 | GSK3A 0 | HER2 = 0 | INSRR 0

CC(C)n1nc(C#Cc2ccccc2)c2c(N)ncnc21 (10 µM)
inactive: EGFR 0 | EGFR_G719S 0 | EGFR_G719S_T790M 0 | EGFR_L718V 0 | EGFR_L858R 0 | EGFR_L861Q 0 | EGFR_T790M 0 | EPHA2 = 0 | ERBB3 = 0 | [1] 0 | ERN1 = 0 | FGFR1 = 0 | FGFR2 = 0 | FGFR3 = 0 | FGR 0 | FLT3 = 0 | GSK3A 0 | HER2 = 0 | INSRR 0
active: FYN 1

More compounds follow:

CNC(=O)c1c(C)oc2cc(Oc3ncnc4cc(OC)c(OC)cc34)ccc12 [Fruquintinib] (10 µM)
inactive: EGFR 0 | EGFR_G719S 0 | EGFR_G719S_T790M 0 | EGFR_L718V 0 | EGFR_L858R 0 | EGFR_L861Q 0 | EGFR_T790M 0 | EPHA2 = 0 | ERBB3 = 0 | [1] 0 | ERN1 = 0 | FGFR1 = 0 | FGFR2 = 0 | FGFR3 = 0 | FGR 0 | FLT3 = 0 | FYN 0 | GSK3A 0 | HER2 = 0 | INSRR 0

COc1ccc(-c2cnc3c(-c4cccc5ncccc45)cnn3c2)cc1 (10 µM)
inactive: EGFR 0 | EGFR_G719S 0 | EGFR_G719S_T790M 0 | EGFR_L718V 0 | EGFR_L858R 0 | EGFR_L861Q 0 | EGFR_T790M 0 | EPHA2 = 0 | ERBB3 = 0 | [1] 0 | ERN1 = 0 | FGFR1 = 0 | FGFR2 = 0 | FGFR3 = 0 | FGR 0 | FLT3 = 0 | FYN 0 | GSK3A 0 | HER2 = 0 | INSRR 0

C=CC(=O)N1CCC[C@@H](n2c(=O)n(-c3ccc(Oc4ccccc4)cc3)c3c(N)nccc32)C1 [Tolebrutinib] (10 µM)
inactive: EGFR 0 | EGFR_G719S 0 | EGFR_G719S_T790M 0 | EGFR_L718V 0 | EGFR_L858R 0 | EGFR_L861Q 0 | EGFR_T790M 0 | EPHA2 = 0 | ERBB3 = 0 | [1] 0 | ERN1 = 0 | FGFR1 = 0 | FGFR2 = 0 | FGFR3 = 0 | FGR 0 | FLT3 = 0 | FYN 0 | GSK3A 0 | HER2 = 0 | INSRR 0

Cc1cc(=O)[nH]c(=S)[nH]1 [Methylthiouracil] (10 µM)
inactive: EGFR 0 | EGFR_G719S 0 | EGFR_G719S_T790M 0 | EGFR_L718V 0 | EGFR_L858R 0 | EGFR_L861Q 0 | EGFR_T790M 0 | EPHA2 = 0 | ERBB3 = 0 | [1] 0 | ERN1 = 0 | FGFR1 = 0 | FGFR2 = 0 | FGFR3 = 0 | FGR 0 | FLT3 = 0 | FYN 0 | GSK3A 0 | HER2 = 0 | INSRR 0
